# PubChem BioAssay AID2551 (National Center for Advancing Translational Sciences (NCATS), 2010)
# Amino acid sequences for entries named in this document (tags omitted). A change or cut given only in a name is not applied to a line headed by its entry.
# UniProt P51450: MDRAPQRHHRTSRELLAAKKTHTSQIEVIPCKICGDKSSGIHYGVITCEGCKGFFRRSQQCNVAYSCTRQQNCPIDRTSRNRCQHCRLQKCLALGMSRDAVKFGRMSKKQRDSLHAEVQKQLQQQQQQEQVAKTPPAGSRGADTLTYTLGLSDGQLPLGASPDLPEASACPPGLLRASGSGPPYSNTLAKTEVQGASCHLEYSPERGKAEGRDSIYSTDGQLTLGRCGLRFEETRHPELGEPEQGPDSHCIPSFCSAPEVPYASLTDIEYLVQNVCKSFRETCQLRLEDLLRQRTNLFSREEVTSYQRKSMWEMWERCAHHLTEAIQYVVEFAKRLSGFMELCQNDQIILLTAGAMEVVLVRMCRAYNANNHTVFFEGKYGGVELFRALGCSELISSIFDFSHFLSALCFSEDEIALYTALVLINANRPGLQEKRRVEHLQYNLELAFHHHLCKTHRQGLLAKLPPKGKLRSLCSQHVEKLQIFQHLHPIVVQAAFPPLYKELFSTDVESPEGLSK
# The campaign covered roughly 310,000 compounds. About 17,000 (5.5%) were called active. The shares of active, inactive and inconclusive entries below differ from those in the screen. Calls come from the whole dose curve; as a rule, active = well fitted inhibition curve with a large enough effect; inconclusive = small, poorly fitted or top-dose-only effect, or effect the other way; inactive = no such curve, though single readings can be large or run the other way. Potencies of inconclusive entries are doubtful fits and often do not repeat.
# Target: Nuclear receptor ROR-gamma (Mus musculus) (UniProt P51450)
# Assay: qHTS for inhibitors of ROR gamma transcriptional activity; note: nearly all actives have a fitted effect of over 60% in size
# Details: Drosophila S2 Gal4-RORgamma UAS-luciferase reporter, 20 h; activity change, negative = inhibition: at 53.6 µM (top of the series)
# Method in brief: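 Using a luciferase readout, inhibitors were identified by reduced reporter activity in Drosophila cells coexpressing a copper-inducible Gal4–ROR gamma fusion and UAS-driven Photinus luciferase, incubated 20 hr after 700 uM copper sulfate.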
# % is set by controls: 0 for no effect and ±100 for the full control effect; potency is the fitted concentration of half-maximal effect.
Compound,"activity change, negative = inhibition",Potency
COc1ccccc1NS(=O)(=O)c1ccc(O)c(NC(=S)NCC2CCCO2)c1 (stereo not given),inactive: -14.8%,
CC(C)CNc1nc(=S)nc(N(C)C)[nH]1,,active: 1.78 µM
COc1ccc(C2=NN(CN3C(=O)C(=O)c4ccccc43)C(c3cccc([N+](=O)[O-])c3)C2)cc1 (stereo not given),inactive: -7.45%,
COc1ccccc1OCC(=O)Nc1ccccc1C(=O)NCc1ccco1,,"inconclusive: 10 µM [activator, partial curve]"
CC(C)CNC(=O)c1ccc(NC(=O)c2ccccc2[N+](=O)[O-])cc1,,"inconclusive: 12.6 µM [activator, single point]"
O=C(C1=C[C@@H](c2coc3ccccc3c2=O)C[C@@H](OCc2ccc(CO)cc2)O1)N1CCN(Cc2ccccc2)CC1,inactive: 25%,
CC12CN3CC(C)(CN(C1)C3c1ccc3ccccc3c1O)C2=O (stereo not given),,"inconclusive: 14.1 µM [inhibitor, single point]"
O=C(NCc1ccc(F)cc1)c1c2c(nc3ccccc13)CCN(Cc1ccccc1)C2,,"inconclusive: 3.16 µM [inhibitor, single point]"
CC(NCc1ccc(S(N)(=O)=O)cc1)C(=O)Nc1cc([N+](=O)[O-])ccc1Cl (stereo not given),,"inconclusive: 12.6 µM [inhibitor, single point]"
Cc1cc(O)c(/C=N/Nc2cccc(Cl)c2)c(=O)o1,,"inconclusive: 15.8 µM [inhibitor, single point]"
COc1cccc(-n2c(C)c3c(OC)cccc(=O)c3c2C)c1,,active: 6.31 µM
O=C(Nc1ccc(OC(F)(F)F)cc1)Oc1ccccc1N1CCOCC1,inactive: -18.8%,
COc1ccccc1OCc1cc(-c2ccccc2)no1,,"inconclusive: 35.5 µM [activator, single point]"
Cc1ccc2nc(C)c(C(=O)NN=C3CCN(C)CC3)n2c1,inactive: -28%,
CCOc1ccc(CCNC(=O)c2ccc(CS(=O)Cc3cccc(Cl)c3)o2)cc1 (stereo not given),,"inconclusive: 14.1 µM [activator, single point]"
CS(=O)(=O)c1ccc2nc(NC(=O)Nc3ccccc3F)sc2c1,,"inconclusive: 0.447 µM [activator, full curve, poor fit]"
COc1cccc(-c2nccc(NC3CCNCC3)n2)c1,,"inconclusive: 35.5 µM [activator, single point]"
COc1ccc2nc3c(c([Si](C)(C)C(C)(C)C)c2c1)Cn1c-3cccc1=O,,active: 12.6 µM
COc1ccc(-c2cc(C(=O)NCCN3CCOCC3)c3ccccc3n2)cc1OC,inactive: -16.8%,
CN(C(=O)c1cc2n(n1)C(C(F)(F)F)CC(c1ccco1)N2)c1ccccc1 (stereo not given),inactive: 15.8%,
CCCCC[C@H](O)/C=C/C1=C(CCCCCCC(=O)O)C(=O)CC1,,"inconclusive: 7.94 µM [activator, partial curve]"
O=C(NCCc1ccc2c(c1)OCCO2)c1ccc(F)cc1,,"inconclusive: 28.2 µM [activator, single point]"
O=[N+]([O-])c1ccc(N2CCN(C(=S)Nc3cccc(F)c3)CC2)cc1,,"inconclusive: 35.5 µM [inhibitor, single point]"
COc1ccc(N2CCN(C(=O)C3CCN(C(=O)c4cccc(Cl)c4)CC3)CC2)cc1,,"inconclusive: 8.91 µM [activator, partial curve, poor fit]"

# Complete entries, looked up by structure:
# `O=C(NCCc1ccc2c(c1)OCCO2)c1ccc(F)cc1` is listed as Potency: inconclusive: 28.2 µM [activator, single point]
# `CCOc1ccc(CCNC(=O)c2ccc(CS(=O)Cc3cccc(Cl)c3)o2)cc1` (stereo not given) is listed as Potency: inconclusive: 14.1 µM [activator, single point]
# `COc1ccc2nc3c(c([Si](C)(C)C(C)(C)C)c2c1)Cn1c-3cccc1=O` is listed as Potency: active: 12.6 µM

# More results follow.

Compound,"activity change, negative = inhibition",Potency
COc1cccc(/C(C)=N/N=C(\C)c2cccc(OC)c2)c1,,"inconclusive: 0.0794 µM [activator, full curve, poor fit]"
O=C(CCS(=O)(=O)c1ccccc1)Nc1ncc([N+](=O)[O-])s1,,"inconclusive: 3.16 µM [inhibitor, single point]"
Oc1ccc(Br)cc1-c1cc(-c2ccco2)[nH]n1,,active: 12.6 µM
COc1ccc(Cl)cc1NC(=S)NNC(=O)CC(C)C,,"inconclusive: 3.16 µM [inhibitor, full curve, poor fit]"
Fc1ccccc1CNC(=S)NCc1ccc(Cl)cc1,,active: 7.94 µM
CCN(c1ccccc1)S(=O)(=O)c1ccc(C(=O)N(CCCN(C)C)c2nc3cc4c(cc3s2)OCO4)cc1,inactive: -42.7%,
CCCCCOC(=O)C1=C(C)Nc2nnnn2C1c1ccccc1Cl (stereo not given),,"inconclusive: 11.2 µM [inhibitor, partial curve]"
Cc1c(C(=O)NC(C)C)oc2c1-c1[nH]ncc1CC2,,"inconclusive: 25.1 µM [inhibitor, single point]"
CC(=O)Nc1ccc(NC(=O)COC(=O)c2c3c(nc4ccccc24)CCN(Cc2ccccc2)C3)cc1,,"inconclusive: 2.51 µM [activator, full curve]"
COC(=O)c1c(C(C)=O)c(C)n(C)c1C,inactive: -0.647%,
Cc1ccc(N(C(C)C(=O)Nc2cccc(N(C)S(C)(=O)=O)c2)S(C)(=O)=O)cc1 (stereo not given),,"inconclusive: 11.2 µM [activator, partial curve, poor fit]"
CCCSc1nnc(NC(=O)c2nc(SC)ncc2Cl)s1,,active: 12.6 µM
CS(=O)(=O)Nc1cccc(-c2ccc3ncnc(NC4CC4)c3c2)c1,,"inconclusive: 3.55 µM [activator, full curve]"
Cc1ccc(SCCC(=O)Nc2ccc(OCc3ccccc3)cc2)cc1,,"inconclusive: 35.5 µM [inhibitor, single point]"
O=c1[nH][nH]c(-c2ccccc2)c1C=Nc1cccc(Cl)c1,,"inconclusive: 35.5 µM [inhibitor, single point]"
O=S(=O)(NC(=NCc1ccccc1)c1ccccc1)c1ccccc1,,"inconclusive: 14.1 µM [activator, single point]"
COc1ccc(/C=C(/NC(=O)c2ccccc2)C(=O)NCCN2CCOCC2)cc1OC,inactive: -5.61%,
O=C(NC(=S)N1CCN(c2ccc([N+](=O)[O-])cc2Cl)CC1)c1ccco1,,active: 0.02 µM
O=c1cc(-c2ccc3c(c2)OCO3)oc2ccccc12,,"inconclusive: 3.55 µM [activator, partial curve]"
Cc1cccc(NC(c2ccc(O)cc2)c2ccc3ccc(C)nc3c2O)n1 (stereo not given),,active: 10 µM
Cc1ccc2c(c1)c1c3n2CCN(C(=O)CCl)C3CCC1 (stereo not given),,active: 2.51 µM
O=C(CN1CCN(C(=O)c2ccco2)CC1)Nc1ccccc1-c1ccccc1,inactive: 13.3%,
Cc1ccc(OC(=O)COc2ccccc2)c(-n2nc3ccccc3n2)c1,,"inconclusive: 35.5 µM [inhibitor, single point]"
COc1cccc(C2C3=C(N=C4SCC(=O)N42)c2ccccc2CC3)c1OC (stereo not given),inactive: -15.4%,

# Random excerpt: two compounds from above
Compound,"activity change, negative = inhibition",Potency
O=S(=O)(NC(=NCc1ccccc1)c1ccccc1)c1ccccc1,,"inconclusive: 14.1 µM [activator, single point]"
O=C(NC(=S)N1CCN(c2ccc([N+](=O)[O-])cc2Cl)CC1)c1ccco1,,active: 0.02 µM

# The list goes on.

Compound,"activity change, negative = inhibition",Potency
CN(NC1OC(=O)c2ccccc21)c1ncc(C(F)(F)F)cc1Cl (stereo not given),,"inconclusive: 8.91 µM [activator, partial curve]"
CC(C)[C@H](NS(=O)(=O)c1cccc(Cl)c1)C(=O)OCC(=O)N1CCN(c2ccccc2)CC1,,"inconclusive: 35.5 µM [activator, single point]"
COc1ccc(-c2noc(CCC(=O)Nc3cc(Cl)c(OC)cc3OC)n2)cc1,inactive: 14%,
NNC(=O)c1ccc(CSc2cccc3cccnc23)cc1,,"inconclusive: 35.5 µM [inhibitor, single point]"
O=C(CSc1nnc(CNC(=O)c2ccccc2)o1)NCCc1ccccc1,,"inconclusive: 1.26 µM [inhibitor, partial curve]"
O=S(=O)(Cc1ncc(C(F)(F)F)cc1Cl)c1ccccc1,,"inconclusive: 35.5 µM [inhibitor, single point]"
[O-]/C(=C(\C(=S)NCc1ccccc1)[n+]1ccccc1)c1ccc(Cl)s1,,"inconclusive: 17.8 µM [inhibitor, single point]"
O=C(Nc1ccccn1)c1nc(-c2ccccc2)n(-c2ccccc2)n1,,"inconclusive: 0.562 µM [inhibitor, single point]"
CC(C)C(=O)Nc1ncc(Cc2ccccc2Cl)s1,,"inconclusive: 3.55 µM [inhibitor, partial curve]"
CC(C)NC(=O)CC(=O)N/N=C/c1ccc(F)cc1,inactive: 8.15%,
COc1ccc(-n2nc3c(c2NC(=O)CC(C)C)CS(=O)C3)cc1 (stereo not given),inactive: 4.28%,
COc1ccc(C2=NC(c3ccc(Cl)cc3)C(c3ccc(Cl)cc3)N2C(=O)N2CCNC(=O)C2)c(OC(C)C)c1 (stereo not given),,"inconclusive: 11.2 µM [activator, single point]"
Cc1cc(Oc2ccc(-c3ccccc3)cc2)nc(N2CCOCC2)n1,,"inconclusive: 17.8 µM [activator, partial curve]"
Cc1ccc(-c2cc(-c3ccc(F)cc3)c(C#N)c(N)n2)o1,inactive: 40.5%,
NS(=O)(=O)c1ccc2nc(NC(=O)c3ccc4ncsc4c3)sc2c1,,"inconclusive: 35.5 µM [inhibitor, single point]"
COc1ccc(Nc2ncc(C(=O)N3CCN(c4ccc(F)cc4)CC3)c3ccccc23)cc1,,"inconclusive: 2 µM [activator, full curve, poor fit]"
COc1ccc(OC)c(/C=N/Nc2nncn2/N=C/c2cc(OC)ccc2OC)c1,,"inconclusive: 35.5 µM [inhibitor, single point]"
O=C(COc1ccc(S(=O)(=O)N2CCOCC2)cc1Cl)NC1CC1,inactive: -20.9%,
Cc1ccc(-c2nc(Nc3cccc(C)c3)sc2CC(=O)O)cc1,,active: 11.2 µM
COc1ccc(NC(=O)CNC(=O)Cn2c(C)cc3ccccc3c2=O)cc1OC,inactive: 17.4%,
C/C(=N\NC(=O)C1(C)CC1(Br)Br)c1cccc(NC(=O)C(C)(C)C)c1 (stereo not given),,"inconclusive: 11.2 µM [activator, partial curve]"
CCn1cc(C(=O)NC2CCC(C)CC2)c(=O)c2cc(S(=O)(=O)N3CCCCC3)ccc21 (stereo not given),,"inconclusive: 1.78 µM [activator, partial curve]"
